According to patent publication US5411942A, “Peptide derivative, pharmaceutical preparation containing it and method for treatment of glaucoma” (Carlbiotech Ltd. A/S, priority 1989, dated 1995):
Not every detail of the peptide structures is certain; ends, links or a residue may be inferred. Peptide text beside a SMILES is read from it. * marks the point of attachment. Acm = CC(=O)NC*

Each compound was assayed on experimentally hypertensive rabbit eye (assay: Antagonizing effect on stress induced intraocular pressure in the rabbit eye, treatment simultaneous with stress). Conditions: Example 10; 1.0% solution 3× daily, 11 stress units over 51/2 days.
Format: in vivo
Protocol: The main feature of this clinical model is a stress induced elevation of the intraocular pressure in the rabbit eye above the initial and normal value. The stress is exerted, i.e. applied, in the form of measuring the pressure (at 12 hour intervals) with the help of a SHIOTZ-Tonometer, which is loaded with 7.5 grams.
Adult rabbits of random breed and sex in groups of n=3-10 were employed. Weight 2,5-3,0 kg. The peptide was a freeze-dried powder, and was applied to the rabbit eye as a powder, or as drops, dissolved in 0.9% NaCl aqueous solution. Positive control was the commercial glaucoma drugs, either timololor pilocarpin, and negative control was 0.9% NaCl solution in water.
20 mg peptide was dissolved in 0.6 ml 0.9% NaCl aqueous solution and applied in aliquots of 60 μl four times daily over a period of 2.5 days.
The treatment was started at the beginning of the experiment simultaneously with stress units. Five stress units were applied at 12 hour intervals.
Stress units were applied at 12 hour intervals over a period of 51/2 days, i.e. 11 stress units. The peptides were applied 3× daily over this period as drops of a 0.5% solution in 0.9% NaCl in aqueous solutions.
Stress units were applied at 12 hour intervals over a period of 51/2 days, i.e. 11 stress units. The peptides were applied 3× daily over this period as drops of a 1.0% solution in 0.9% NaCl in aqueous solution.

Question: For CC(=O)NCSC[C@H](NC(=O)[C@@H](NC(=O)CNC(C)=O)C(C)C)C(N)=O [AcGlyValCys(Acm)NH2] (Ac-Gly-Val-Cys(Acm)-NH2), which “pressure increase as part of that of negative saline controls” value (“pressure increase as part” below) is on record?
Answer: smaller than 70%

Question: CC(=O)NCSC[C@H](NC(=O)CNC(=O)[C@H](CC(C)C)NC(=O)[C@@H](N)CC(N)=O)C(N)=O [AsnLeuGlyCys(Acm)NH2] (H-NLGC(Acm)-NH2) was tested. Which “pressure increase as part” value did it give?
Answer: smaller than 70%

Question: CC(=O)NCSC[C@H](NC(=O)[C@@H](NC(=O)[C@@H](N)CC(N)=O)C(C)C)C(N)=O [AsnValCys(Acm)NH2, H-Asn-Val-Cys(Acm)-NH2] (H-Asn-Val-Cys(Acm)-NH2) was tested. Which “pressure increase as part” value did it give?
Answer: smaller than 70%
